Measurements reported in PubChem BioAssay AID1053208 (Peter MacCallum Cancer Centre, 2014)
This is a random part of about 17,000 deposited reagents. In the full data, 788 (4.7%) are marked active. 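Calls rest on z-score classes alone; an extra cut-off of viability at most 70% of control was not applied to them.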 Unmarked entries are inactive. No sequences are given here.

Aim: 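Genes whose silencing cuts survival of bone tumour cells only with doxorubicin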 (primary screen)
Cell system: mouse osteosarcoma cells, early-passage culture from an engineered mouse model of fibroblastic bone tumour
Reagents: siRNA pool against mouse genes, 40 nM
Timing: about 120 h (48 h before drug, then 72 h with drug)
Conditions: doxorubicin 100 nM for 72 h, roughly 30-40% inhibitory dose
Measured: 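Viability read as ATP luminescence after 72 h of 100 nM doxorubicin or none, duplicate wells averaged, scaled to non-targeting siRNA, then expressed as robust z-scores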
Direction: viability z-score with doxorubicin and doxorubicin viability vs non-targeting: higher = more viable cells under doxorubicin; viability z-score without drug: higher = more viable cells with knock-down alone; z-score of drug to no-drug ratio: higher = less drug sensitisation by knock-down
Active means: 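a pool counts as active when its viability z-score with doxorubicin is -2 or below and its z-score without drug lies between -2 and 2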

| Gene | combined z-score class | viability z-score with doxorubicin | viability z-score without drug | z-score of drug to no-drug ratio | doxorubicin viability vs non-targeting |
| --- | --- | --- | --- | --- | --- |
| Neurod6 | no change with or without drug | -0.34 | -0.84 | 0.34 | 0.91 |
| Phospho2 | no change with or without drug | -0.22 | -0.17 | 0 | 0.92 |
| Npy5r | no change with or without drug | 0.34 | -0.34 | 0.67 | 0.97 |
| Runx2 | high cell count without drug only | 0.67 | 2.36 | -0.67 | 1 |
| Gria1 | no change with or without drug | -0.11 | -1.18 | 0.9 | 0.93 |
| Dynll2 | no change with or without drug | 0.22 | 0.34 | 0.11 | 0.96 |
| C1qtnf1 | no change with or without drug | 1.35 | 0.67 | 1.01 | 1.06 |
| Tepsin | high cell count without drug only | 1.8 | 2.19 | 0.45 | 1.1 |
| Scgn | no change with or without drug | -1.8 | -0.51 | -1.46 | 0.78 |
| Slc36a2 | no change with or without drug | -1.12 | -0.51 | -0.79 | 0.84 |
| Or12e8 | high cell count without drug only | 0 | 3.54 | -1.91 | 0.94 |
| Vwa2 | high cell count without drug only | -1.8 | 2.02 | -2.81 | 0.78 |
| Cripto | no change with or without drug | -0.67 | -0.67 | -0.11 | 0.88 |
| Or2ak7 | no change with or without drug | -1.12 | -1.69 | 0.11 | 0.84 |
| Pde1b | no change with or without drug | 0 | -0.51 | 0.45 | 0.94 |
| Ssbp4 | no change with or without drug | 0.56 | 0.51 | 0.34 | 0.99 |
| Wee2 | no change with or without drug | -1.8 | -1.18 | -1.01 | 0.78 |
| Clasrp | no change with or without drug | 0 | 0.51 | -0.22 | 0.94 |
| Mmp3 | no change with or without drug | -0.45 | 1.01 | -1.01 | 0.9 |
| Apoc3 | no change with or without drug | 0.34 | 0.51 | 0.11 | 0.97 |
| Mrpl47 | no change with or without drug | 0.9 | -0.84 | 1.69 | 1.02 |
| Adam5 | no change with or without drug | 0.34 | 0.51 | 0.11 | 0.97 |
| Tmem154 | no change with or without drug | 1.91 | 0.51 | 1.69 | 1.11 |
| Or1e32 | no change with or without drug | -0.11 | 1.18 | -0.79 | 0.93 |
| D830044D21Rik | no change with or without drug | -0.45 | 1.18 | -1.12 | 0.9 |
| Aff3 | no change with or without drug | -0.22 | -0.84 | 0.45 | 0.92 |
| Trp53inp1 | no change with or without drug | -0.9 | 0.17 | -0.9 | 0.86 |
| Actg2 | no change with or without drug | -0.9 | -0.17 | -0.79 | 0.86 |
| Pinx1 | no change with or without drug | -0.45 | -1.18 | 0.45 | 0.9 |
| Dclk1 | no change with or without drug | 0.9 | -0.34 | 1.35 | 1.02 |
| Csf2rb | no change with or without drug | 1.35 | 1.52 | 0.45 | 1.06 |
| Itih3 | low cell count with doxorubicin only (active) | -2.02 | -1.18 | -1.35 | 0.76 |
| Pla2g4e | no change with or without drug | -0.56 | 0.67 | -0.9 | 0.89 |
| Ehbp1 | no change with or without drug | 0 | -0.51 | 0.45 | 0.94 |
| Fam241b | no change with or without drug | -0.22 | 0.51 | -0.45 | 0.92 |
| Zfp979 | no change with or without drug | -0.56 | 0.51 | -0.79 | 0.89 |
| Cilk1 | no change with or without drug | 1.8 | 1.18 | 1.12 | 1.1 |
| Arfgap3 | no change with or without drug | -1.57 | -1.35 | -0.67 | 0.8 |
| Thbs1 | no change with or without drug | 0 | 0.17 | 0 | 0.94 |
| Lamtor2 | no change with or without drug | -0.22 | -1.85 | 1.35 | 0.92 |

3 consecutive reagents already listed:
| Gene | combined z-score class | viability z-score with doxorubicin | viability z-score without drug | z-score of drug to no-drug ratio | doxorubicin viability vs non-targeting |
| --- | --- | --- | --- | --- | --- |
| Pde1b | no change with or without drug | 0 | -0.51 | 0.45 | 0.94 |
| Ssbp4 | no change with or without drug | 0.56 | 0.51 | 0.34 | 0.99 |
| Wee2 | no change with or without drug | -1.8 | -1.18 | -1.01 | 0.78 |

Continued.
| Gene | combined z-score class | viability z-score with doxorubicin | viability z-score without drug | z-score of drug to no-drug ratio | doxorubicin viability vs non-targeting |
| --- | --- | --- | --- | --- | --- |
| Bhlhe23 | no change with or without drug | 0.34 | -0.17 | 0.56 | 0.97 |
| Col4a2 | no change with or without drug | 0.22 | -1.18 | 1.24 | 0.96 |
| Cd40lg | no change with or without drug | 0.45 | 1.18 | -0.22 | 0.98 |
| Alpk3 | no change with or without drug | 0.34 | 0.34 | 0.22 | 0.97 |
| Zfyve9 | no change with or without drug | 0.22 | 0.51 | 0 | 0.96 |
| Stx19 | no change with or without drug | 0.9 | 0.17 | 0.9 | 1.02 |
| Crtc3 | no change with or without drug | -1.35 | -1.69 | -0.22 | 0.82 |
| B3galnt1 | no change with or without drug | 0 | 0.17 | 0 | 0.94 |
| Mapk8ip2 | high cell count without drug only | 1.69 | 3.88 | -0.67 | 1.09 |
| Vps13b | no change with or without drug | -0.11 | -0.84 | 0.56 | 0.93 |
| Zfp346 | no change with or without drug | 0.45 | 1.18 | -0.22 | 0.98 |
| Mst1r | no change with or without drug | -0.56 | -0.51 | -0.11 | 0.89 |
| Capza3 | no change with or without drug | 0.79 | -0.17 | 1.01 | 1.01 |
| Mboat1 | no change with or without drug | 0.67 | 0.67 | 0.34 | 1 |
| Mtnap1 | no change with or without drug | 0.34 | 0.84 | -0.11 | 0.97 |
| A930037J23RIK | no change with or without drug | -1.12 | -0.67 | -0.67 | 0.84 |
| Golga1 | no change with or without drug | -0.67 | -0.17 | -0.45 | 0.88 |
| Zdhhc17 | no change with or without drug | 1.35 | 1.18 | 0.67 | 1.06 |
| Sdk1 | no change with or without drug | -0.56 | -1.85 | 0.9 | 0.89 |
| Sltm | no change with or without drug | -1.46 | -0.51 | -1.12 | 0.81 |
| Nrep | no change with or without drug | 1.01 | -0.84 | 1.8 | 1.03 |
| Egfr | no change with or without drug | -0.11 | -0.67 | 0.45 | 0.93 |
| Awat2 | no change with or without drug | -0.22 | 0.51 | -0.45 | 0.92 |
